In US8940227B2, “Use of polyester polyamine and polyester polyquaternary ammonium compounds as corrosion inhibitors” (Akzo Nobel Chemical International B.V., priority 2010, dated 2015):

Assay: Corrosion inhibition in brine, bubble test (LPR), inhibitor dosed to a model oil phase
Settings: 90% Forties synthetic brine/10% kerosene, CO2 saturated, 55° C.

C12-C16 Cocoalkyl di-methyl benzyl quaternary amine
% Protection (10 ppm active inhibitor dosed into kerosene phase): −1.1% | % Protection (25 ppm active inhibitor dosed into kerosene phase): 8.2% | % Protection (50 ppm active inhibitor dosed into kerosene phase): 3.9%
